# These are yes or no findings as the source states them, for the method shown. Binding seen in cells or lysates may run through a third protein. Some results given as binding are weak or reduced against the parent protein; the word gives no strength.
# The chains behind the UniProt entries cited, without tags or fusion partners.
# UniProt P68366: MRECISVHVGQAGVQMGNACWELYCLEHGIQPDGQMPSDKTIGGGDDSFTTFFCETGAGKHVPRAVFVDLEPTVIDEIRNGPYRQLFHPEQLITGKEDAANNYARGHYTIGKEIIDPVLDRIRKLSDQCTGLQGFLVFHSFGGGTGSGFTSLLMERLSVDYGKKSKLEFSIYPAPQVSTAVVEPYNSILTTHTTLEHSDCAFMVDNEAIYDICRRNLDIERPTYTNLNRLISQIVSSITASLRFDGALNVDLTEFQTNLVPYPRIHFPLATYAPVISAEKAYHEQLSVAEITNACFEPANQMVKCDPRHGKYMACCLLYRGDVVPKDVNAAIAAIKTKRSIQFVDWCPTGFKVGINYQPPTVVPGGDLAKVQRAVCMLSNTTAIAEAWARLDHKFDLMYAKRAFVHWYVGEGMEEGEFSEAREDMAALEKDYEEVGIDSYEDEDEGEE
# UniProt P68363: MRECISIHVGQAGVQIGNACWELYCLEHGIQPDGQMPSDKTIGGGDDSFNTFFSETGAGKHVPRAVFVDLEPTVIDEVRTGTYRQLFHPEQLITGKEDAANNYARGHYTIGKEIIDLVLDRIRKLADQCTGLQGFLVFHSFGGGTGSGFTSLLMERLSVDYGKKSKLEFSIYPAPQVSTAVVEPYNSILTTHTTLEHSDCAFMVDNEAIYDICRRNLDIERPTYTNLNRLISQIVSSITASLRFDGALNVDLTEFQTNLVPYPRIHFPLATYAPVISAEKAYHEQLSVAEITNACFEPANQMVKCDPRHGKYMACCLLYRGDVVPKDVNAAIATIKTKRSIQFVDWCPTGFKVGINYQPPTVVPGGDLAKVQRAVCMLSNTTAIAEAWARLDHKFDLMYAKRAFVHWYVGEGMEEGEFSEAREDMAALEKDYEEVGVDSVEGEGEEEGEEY
# UniProt Q9ESD7: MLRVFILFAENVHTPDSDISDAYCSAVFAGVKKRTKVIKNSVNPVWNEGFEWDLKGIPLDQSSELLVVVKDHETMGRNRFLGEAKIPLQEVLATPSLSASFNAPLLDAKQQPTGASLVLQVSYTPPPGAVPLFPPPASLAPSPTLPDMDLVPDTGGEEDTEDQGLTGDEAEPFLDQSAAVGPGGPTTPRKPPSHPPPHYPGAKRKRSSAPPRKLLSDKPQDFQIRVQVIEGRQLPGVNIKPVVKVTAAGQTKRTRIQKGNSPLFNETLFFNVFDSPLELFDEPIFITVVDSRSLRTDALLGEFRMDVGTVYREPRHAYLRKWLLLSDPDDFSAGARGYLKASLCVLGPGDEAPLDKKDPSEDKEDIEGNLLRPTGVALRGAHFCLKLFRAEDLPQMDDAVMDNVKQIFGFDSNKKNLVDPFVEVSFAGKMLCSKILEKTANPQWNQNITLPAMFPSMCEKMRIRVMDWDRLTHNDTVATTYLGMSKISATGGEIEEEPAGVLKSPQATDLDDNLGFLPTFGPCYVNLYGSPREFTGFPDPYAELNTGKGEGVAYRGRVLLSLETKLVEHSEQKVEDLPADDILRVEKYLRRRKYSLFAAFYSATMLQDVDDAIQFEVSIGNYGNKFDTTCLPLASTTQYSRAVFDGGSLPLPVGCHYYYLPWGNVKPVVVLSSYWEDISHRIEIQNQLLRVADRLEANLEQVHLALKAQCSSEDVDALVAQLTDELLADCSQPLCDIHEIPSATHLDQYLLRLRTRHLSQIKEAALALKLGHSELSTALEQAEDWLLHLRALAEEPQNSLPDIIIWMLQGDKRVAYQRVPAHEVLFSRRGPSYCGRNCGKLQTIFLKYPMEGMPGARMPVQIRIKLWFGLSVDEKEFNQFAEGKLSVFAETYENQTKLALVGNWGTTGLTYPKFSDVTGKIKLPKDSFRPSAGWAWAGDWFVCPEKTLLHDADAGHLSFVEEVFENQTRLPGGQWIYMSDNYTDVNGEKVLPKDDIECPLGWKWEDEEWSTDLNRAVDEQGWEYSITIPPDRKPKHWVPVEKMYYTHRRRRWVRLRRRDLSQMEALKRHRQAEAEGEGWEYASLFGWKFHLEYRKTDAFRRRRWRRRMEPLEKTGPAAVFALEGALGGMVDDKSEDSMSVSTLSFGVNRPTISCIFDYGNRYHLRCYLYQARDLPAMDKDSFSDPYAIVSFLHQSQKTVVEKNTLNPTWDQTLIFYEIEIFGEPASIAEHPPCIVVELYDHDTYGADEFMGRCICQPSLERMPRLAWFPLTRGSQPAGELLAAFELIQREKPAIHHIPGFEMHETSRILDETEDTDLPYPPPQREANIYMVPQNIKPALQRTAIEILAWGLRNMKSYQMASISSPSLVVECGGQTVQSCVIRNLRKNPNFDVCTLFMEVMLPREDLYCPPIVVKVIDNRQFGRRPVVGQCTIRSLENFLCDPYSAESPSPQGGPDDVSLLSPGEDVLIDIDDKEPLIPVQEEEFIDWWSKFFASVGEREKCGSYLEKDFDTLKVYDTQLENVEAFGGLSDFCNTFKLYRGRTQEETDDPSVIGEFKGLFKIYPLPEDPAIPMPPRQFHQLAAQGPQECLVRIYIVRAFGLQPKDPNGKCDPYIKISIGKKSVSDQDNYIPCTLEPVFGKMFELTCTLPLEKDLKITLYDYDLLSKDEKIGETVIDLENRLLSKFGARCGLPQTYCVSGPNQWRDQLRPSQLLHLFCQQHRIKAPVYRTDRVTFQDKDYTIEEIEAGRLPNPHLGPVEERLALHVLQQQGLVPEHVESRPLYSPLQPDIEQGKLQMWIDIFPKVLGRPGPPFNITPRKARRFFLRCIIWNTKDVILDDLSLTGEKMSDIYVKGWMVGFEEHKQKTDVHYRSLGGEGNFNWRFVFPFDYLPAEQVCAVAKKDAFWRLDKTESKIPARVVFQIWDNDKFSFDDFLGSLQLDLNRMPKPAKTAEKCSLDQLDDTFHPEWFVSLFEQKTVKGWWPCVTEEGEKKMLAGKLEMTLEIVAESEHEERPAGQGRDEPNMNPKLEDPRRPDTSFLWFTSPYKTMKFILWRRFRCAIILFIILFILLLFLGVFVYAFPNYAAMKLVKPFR
# Legend:
# [1] = target: GST-TubA4A (UniProt P68366); experiment: pull-down; 10 µg GST-TubA fusion protein on glutathione Sepharose 4B beads incubated overnight at 4°C with 1 mg mouse leg muscle homogenate (50 mM HEPES pH 7.6, 150 mM NaCl, 1% Triton X-100, 10% glycerol, 1 mM MgCl2); blot with anti-dysferlin; only the target purified
# [2] = target: GST-TubA1B (UniProt P68363); experiment: as above
substance,measurement,setting,value
native dysferlin (mouse) (from UniProt Q9ESD7 1-2090),binding,[1],binds
same,binding,[2],binds

# Source: publication PMC2853571
